Test results as given in paper doi:10.1101/2024.10.03.616509.
No constants are given. Whether binding was seen depends on the method and setting. Some entries that bind do so weakly or less than the wild type.

Columns and labels:
Test in all cases: two-hybrid
Rab29 (Q67L) = target: T1, Rab29 (Q67L) (UniProt O14966)
T1 sequence: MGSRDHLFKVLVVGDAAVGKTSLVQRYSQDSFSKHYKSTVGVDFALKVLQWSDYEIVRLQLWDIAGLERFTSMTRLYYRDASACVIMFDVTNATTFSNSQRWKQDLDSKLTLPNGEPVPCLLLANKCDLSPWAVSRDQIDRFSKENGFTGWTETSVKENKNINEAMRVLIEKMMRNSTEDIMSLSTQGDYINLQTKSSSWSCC

Vps11 = target: T2, Vps11 (UniProt Q9H270)
T2 sequence: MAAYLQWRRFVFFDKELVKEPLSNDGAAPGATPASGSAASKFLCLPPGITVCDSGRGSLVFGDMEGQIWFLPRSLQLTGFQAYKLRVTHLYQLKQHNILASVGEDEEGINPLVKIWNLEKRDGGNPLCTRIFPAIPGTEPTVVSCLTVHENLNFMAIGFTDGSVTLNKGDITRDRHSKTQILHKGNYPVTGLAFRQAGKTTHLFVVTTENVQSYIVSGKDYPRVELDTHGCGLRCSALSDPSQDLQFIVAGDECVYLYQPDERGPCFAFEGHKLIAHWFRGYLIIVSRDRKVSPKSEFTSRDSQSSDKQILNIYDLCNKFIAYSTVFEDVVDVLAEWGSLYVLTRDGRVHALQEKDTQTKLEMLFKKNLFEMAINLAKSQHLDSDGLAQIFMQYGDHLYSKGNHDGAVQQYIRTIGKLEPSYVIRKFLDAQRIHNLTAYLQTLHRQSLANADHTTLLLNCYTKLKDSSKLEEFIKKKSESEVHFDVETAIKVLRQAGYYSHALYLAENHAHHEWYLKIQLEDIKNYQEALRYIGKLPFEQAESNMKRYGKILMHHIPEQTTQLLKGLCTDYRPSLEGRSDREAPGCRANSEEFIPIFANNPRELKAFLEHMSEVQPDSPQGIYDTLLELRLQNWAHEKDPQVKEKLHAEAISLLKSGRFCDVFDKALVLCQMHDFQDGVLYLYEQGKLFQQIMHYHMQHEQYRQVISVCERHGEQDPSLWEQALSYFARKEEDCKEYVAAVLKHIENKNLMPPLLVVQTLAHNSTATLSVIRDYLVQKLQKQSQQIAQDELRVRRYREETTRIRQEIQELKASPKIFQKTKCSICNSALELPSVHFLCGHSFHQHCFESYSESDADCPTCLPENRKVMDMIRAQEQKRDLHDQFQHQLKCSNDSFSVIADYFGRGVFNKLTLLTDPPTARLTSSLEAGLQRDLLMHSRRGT

Vps16 = target: T3, Vps16 (UniProt Q9H269)
T3 sequence: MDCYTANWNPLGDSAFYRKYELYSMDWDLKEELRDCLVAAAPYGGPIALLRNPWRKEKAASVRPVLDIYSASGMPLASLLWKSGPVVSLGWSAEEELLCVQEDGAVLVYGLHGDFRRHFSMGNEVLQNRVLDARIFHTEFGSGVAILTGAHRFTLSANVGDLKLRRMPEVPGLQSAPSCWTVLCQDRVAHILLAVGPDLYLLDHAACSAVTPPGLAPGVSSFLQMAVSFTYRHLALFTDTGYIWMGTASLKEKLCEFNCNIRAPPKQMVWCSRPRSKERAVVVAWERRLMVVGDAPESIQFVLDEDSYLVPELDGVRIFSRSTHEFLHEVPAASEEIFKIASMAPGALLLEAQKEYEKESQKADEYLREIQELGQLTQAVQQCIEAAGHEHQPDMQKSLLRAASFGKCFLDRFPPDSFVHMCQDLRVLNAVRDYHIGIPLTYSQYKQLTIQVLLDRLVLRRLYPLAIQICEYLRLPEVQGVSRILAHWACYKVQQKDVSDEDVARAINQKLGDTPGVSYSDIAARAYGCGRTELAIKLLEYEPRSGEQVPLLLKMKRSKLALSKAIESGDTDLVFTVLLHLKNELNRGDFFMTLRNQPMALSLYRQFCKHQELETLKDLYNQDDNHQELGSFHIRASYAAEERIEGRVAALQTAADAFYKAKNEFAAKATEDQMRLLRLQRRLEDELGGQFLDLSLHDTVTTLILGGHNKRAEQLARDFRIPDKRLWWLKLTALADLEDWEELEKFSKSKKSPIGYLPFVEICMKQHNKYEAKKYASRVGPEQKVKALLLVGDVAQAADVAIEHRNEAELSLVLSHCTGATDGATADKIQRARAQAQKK

B1: TECPR2 (WT) (protein, UniProt O15040 1-1411)
chain: MASISEPVTFREFCPLYYLLNAIPTKIQKGFRSIVVYLTALDTNGDYIAVGSSIGMLYLYCRHLNQMRKYNFEGKTESITVVKLLSCFDDLVAAGTASGRVAVFQLVSSLPGRNKQLRRFDVTGIHKNSITALAWSPNGMKLFSGDDKGKIVYSSLDLDQGLCNSQLVLEEPSSIVQLDYSQKVLLVSTLQRSLLFYTEEKSVRQIGTQPRKSTGKFGACFIPGLCKQSDLTLYASRPGLRLWKADVHGTVQATFILKDAFAGGVKPFELHPRLESPNSGSCSLPERHLGLVSCFFQEGWVLSWNEYSIYLLDTVNQATVAGLEGSGDIVSVSCTENEIFFLKGDRNIIRISSRPEGLTSTVRDGLEMSGCSERVHVQQAEKLPGATVSETRLRGSSMASSVASEPRSRSSSLNSTDSGSGLLPPGLQATPELGKGSQPLSQRFNAISSEDFDQELVVKPIKVKRKKKKKKTEGGSRSTCHSSLESTPCSEFPGDSPQSLNTDLLSMTSSVLGSSVDQLSAESPDQESSFNGEVNGVPQENTDPETFNVLEVSGSMPDSLAEEDDIRTEMPHCHHAHGRELLNGAREDVGGSDVTGLGDEPCPADDGPNSTQLPFQEQDSSPGAHDGEDIQPIGPQSTFCEVPLLNSLTVPSSLSWAPSAEQWLPGTRADEGSPVEPSQEQDILTSMEASGHLSTNLWHAVTDDDTGQKEIPISERVLGSVGGQLTPVSALAASTHKPWLEQPPRDQTLTSSDEEDIYAHGLPSSSSETSVTELGPSCSQQDLSRLGAEDAGLLKPDQFAESWMGYSGPGYGILSLVVSEKYIWCLDYKGGLFCSALPGAGLRWQKFEDAVQQVAVSPSGALLWKIEQKSNRAFACGKVTIKGKRHWYEALPQAVFVALSDDTAWIIRTSGDLYLQTGLSVDRPCARAVKVDCPYPLSQITARNNVVWALTEQRALLYREGVSSFCPEGEQWKCDIVSERQALEPVCITLGDQQTLWALDIHGNLWFRTGIISKKPQGDDDHWWQVSITDYVVFDQCSLFQTIIHATHSVATAAQAPVEKVADKLRMAFWSQQLQCQPSLLGVNNSGVWISSGKNEFHVAKGSLIGTYWNHVVPRGTASATKWAFVLASAAPTKEGSFLWLCQSSKDLCSVSAQSAQSRPSTVQLPPEAEMRAYAACQDALWALDSLGQVFIRTLSKSCPTGMHWTRLDLSQLGAVKLTSLACGNQHIWACDSRGGVYFRVGTQPLNPSLMLPAWIMIEPPVQPAGVSLVSVHSSPNDQMLWVLDSRWNVHVRTGITEEMPVGTAWEHVPGLQACQLALSTRTVWARCPNGDLARRYGVTDKNPAGDYWKKIPGSVSCFTVTASDELWAVGPPGYLLQRLTKTFSHSHGTQKSSQAAMPHPEDLEDEWEVI
**Q.** B1 was tested. Which binding (Rab29 (Q67L)) did it give?
**A.** binds

**Q.** What about the binding (Vps11) of the same binder?
**A.** binds weakly

**Q.** And the binding (Vps16)?
**A.** binds
